The results in this text go back to paper doi:10.1101/2019.12.12.874503.

This assay deals with T1, uL5c-HA (chloroplast-encoded ribosomal protein Rpl5 with C-terminal triple-HA tag) (Chlamydomonas reinhardtii) (UniProt Q8HTL1).
T1 sequence: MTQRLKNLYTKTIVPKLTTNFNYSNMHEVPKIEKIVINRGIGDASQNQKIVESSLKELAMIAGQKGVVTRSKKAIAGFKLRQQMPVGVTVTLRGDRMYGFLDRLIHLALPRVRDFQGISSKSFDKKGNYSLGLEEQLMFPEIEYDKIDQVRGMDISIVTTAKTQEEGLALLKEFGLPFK
In words: affinity purification with mass spectrometry.

These are yes or no findings as the source states them, for the method shown. In cells and extracts the contact can be indirect. These calls come from enrichment with a bait or labelling near it, and not all partners need be listed. A no says only that the protein was not detected with the bait. Sequences can lack the tags named with a protein.

B1: AtpB (CF1 ATPase subunit) (protein, UniProt P06541 1-481)
chain: MSDSIETKNMGRIVQIIGPVLDIVFAKGQVPNIYNALTIRAKNSAGTEMAVTCEVQQLLGDNCVRAVSMNPTEGLMRGMEVVDTGKPLSVPVGKVTLGRIFNVLGEPVDNMGNVKVEETLPIHRTAPAFVDLDTRLSIFETGIKVVDLLAPYRRGGKIGLFGGAGVGKTVLIMELINNIAKAHGGVSVFAGVGERTREGNDLYTEMKESGVIVEKNLSDSKVALVYGQMNEPPGARMRVALTALTMAEYFRDVNKQDVLFFIDNIFRFVQAGAEVSALLGRMPSAVGYQPTLATEMGGLQERITSTKDGSITSIQAVYVPADDLTDPAPATTFAHLDATTVLSRNLAAKGIYPAVDPLESTSTMLQPWILGEKHYDSAQSVKKTLQRYKELQDIIAILGLDELSEEDRLIVARARKIERFLSQPFFVAEVFTGSPGKYVSLAETIEGFGKIFAGELDDLPEQAFYLVGNITEAISKAASLK
On to B1, for which the binding entry was “no binding”.

B2: uL23c (chloroplast-encoded Rpl23) (protein, UniProt Q8HTL3 1-95)
chain: MLDLVKYPVITQKTYIALFKDRQYTFDVDLRLTKPQIKKVFETLFNVDVISVNTHIPPRQKIRVGLAQGYRPRYKRAIITLKEGQSINYSLKNDN
As for B2, the binding entry was “binds”.
